These are yes or no findings as the source states them, for the method shown. In cells and extracts the contact can be indirect. Some binding calls cover weakened binding; strength is not graded here.
Biological target: neuropilin-1 (NRP1) (human (endogenous in SW480/LS174T)) (UniProt O14786)
Assay: co-IP; CRC cells with (+) or without (-) VEGF (50 ng/mL) treatment; which of the two was precipitated is not told

The chains behind the UniProt entries cited, without tags or fusion partners. Residues count along the entry.
UniProt O14786, residues 22-923: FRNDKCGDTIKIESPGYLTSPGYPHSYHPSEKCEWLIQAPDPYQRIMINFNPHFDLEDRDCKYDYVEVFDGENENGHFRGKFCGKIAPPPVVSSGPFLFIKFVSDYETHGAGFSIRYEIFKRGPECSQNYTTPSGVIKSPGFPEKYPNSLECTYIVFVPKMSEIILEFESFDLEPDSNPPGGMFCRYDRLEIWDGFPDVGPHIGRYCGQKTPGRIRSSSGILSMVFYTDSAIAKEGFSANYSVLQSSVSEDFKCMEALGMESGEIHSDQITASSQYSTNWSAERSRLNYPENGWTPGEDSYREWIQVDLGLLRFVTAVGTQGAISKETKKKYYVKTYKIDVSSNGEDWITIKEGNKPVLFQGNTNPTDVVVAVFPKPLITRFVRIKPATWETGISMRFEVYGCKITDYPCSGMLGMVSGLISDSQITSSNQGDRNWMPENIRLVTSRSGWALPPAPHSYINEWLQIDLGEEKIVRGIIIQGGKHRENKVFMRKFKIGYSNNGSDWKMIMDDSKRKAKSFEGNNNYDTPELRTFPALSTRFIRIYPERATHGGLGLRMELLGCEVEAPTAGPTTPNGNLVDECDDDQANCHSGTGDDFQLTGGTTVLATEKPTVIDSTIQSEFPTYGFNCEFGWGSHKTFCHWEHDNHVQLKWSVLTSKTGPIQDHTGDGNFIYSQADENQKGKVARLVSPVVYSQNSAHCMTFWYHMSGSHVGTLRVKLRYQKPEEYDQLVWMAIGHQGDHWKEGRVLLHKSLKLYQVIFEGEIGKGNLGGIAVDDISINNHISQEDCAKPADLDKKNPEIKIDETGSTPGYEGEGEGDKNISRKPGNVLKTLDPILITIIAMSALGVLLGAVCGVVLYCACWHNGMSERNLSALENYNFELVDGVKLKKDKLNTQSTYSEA
UniProt P60953: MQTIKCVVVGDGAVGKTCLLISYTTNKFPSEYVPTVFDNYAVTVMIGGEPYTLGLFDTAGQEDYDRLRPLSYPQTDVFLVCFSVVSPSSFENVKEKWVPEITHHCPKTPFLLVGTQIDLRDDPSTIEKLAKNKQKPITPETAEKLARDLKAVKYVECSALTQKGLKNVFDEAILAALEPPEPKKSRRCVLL

In the case of “Cdc42 (cell division cycle 42) (from UniProt P60953 1-191)”, the binding is reported as “binds”.

From publication PMC7058620
